PubChem BioAssay AID2563 (Broad Institute, 2010)
The campaign covered roughly 290,000 compounds. About 800 (0.28%) were called active. Inconclusive means that the source gave no clear call. Such entries were picked first, then a sample of the others.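 Rule for the calls: active = fall in fluorescence gain of 50% or more versus controls, with final raw signal at or below 3038400; inconclusive = same 50% fall but final raw signal above 3038400; inactive = fall in fluorescence gain under 50%.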

The chains behind the UniProt entries cited, without tags or fusion partners. Where a name states a change or a piece, a line headed by the entry shows the natural chain unless it says otherwise.
UniProt Q03530: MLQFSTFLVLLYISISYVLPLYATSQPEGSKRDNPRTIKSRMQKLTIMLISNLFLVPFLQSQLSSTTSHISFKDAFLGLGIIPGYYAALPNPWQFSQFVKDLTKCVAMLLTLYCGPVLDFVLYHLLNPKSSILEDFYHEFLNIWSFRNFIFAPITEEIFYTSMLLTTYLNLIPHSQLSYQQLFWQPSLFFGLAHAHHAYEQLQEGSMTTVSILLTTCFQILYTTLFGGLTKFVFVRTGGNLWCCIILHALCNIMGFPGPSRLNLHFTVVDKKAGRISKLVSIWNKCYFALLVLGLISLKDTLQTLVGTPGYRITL

target: CAAX prenyl protease 2 (Saccharomyces cerevisiae (strain ATCC 204508 / S288c)) (UniProt Q03530); experiment: blockers of Rce1 CaaX peptide cleavage – biochemical, fluorescence, cell-free homogeneous, primary screen (AID 2563); settings: yeast membranes, quenched prenylated peptide cleavage fluorescence

SMILES	outcome
CCn1c(CN2CCN(c3ccc(Cl)cc3)CC2)nc2ccccc21	inactive
CCOc1ccc(/C=C/C(=O)c2ccc(-c3ccccc3)cc2)cc1	inconclusive
Cc1ccc(S(=O)(=O)/N=C(\Sc2ccccc2)c2ccccc2)cc1	inactive
N#Cc1nc(-c2cccs2)oc1NCCN1CCOCC1	inconclusive
CN(C)c1oc(-c2cccs2)nc1C#N	inconclusive
Cc1ccc(S(=O)(=O)NCc2ccc(C(=O)N3CCc4ccccc4C3)cc2)cc1	inactive
CCCN(CC(=O)Nc1cccc(Br)c1)CC(=O)Nc1ccc(F)c(F)c1F	inactive
CN(CC(=O)Nc1cccc(F)c1)C(=O)c1cccc(-n2cccc2)c1	inactive
Cc1c(NC(=O)C(C)OC(=O)c2ccc(Br)o2)c(=O)n(-c2ccccc2)n1C (stereo not drawn)	inactive
CCc1cc(=O)oc2c(C)c(O)c(CN3CCCCC3)cc12	inconclusive
CCC(CC)C(=O)N1N=C(c2ccc(NS(C)(=O)=O)cc2)CC1c1ccc(C)cc1 (stereo not drawn)	inconclusive
COc1cc(C(=O)Nc2cc(-c3cn4cccnc4n3)ccc2C)cc(OC)c1OC	inconclusive
COC(=O)C1=CN(Cc2cccs2)C=C(C(=O)OC)C1c1cccc(O)c1	inconclusive
CC(=O)Nc1cccc(-c2nc3ccc(NC(C)=O)cc3s2)c1	inconclusive
CC(=O)c1cccc(S(=O)(=O)N2CCC(C(=O)O)(c3ccccc3)CC2)c1	inconclusive
CC[C@H](C)[C@H](NC(=O)CNC(=O)COc1cc2c(c3oc(=O)cc(C)c13)CCC(C)(C)O2)C(=O)O	inconclusive
CC1=NN(c2ccccc2)C(=O)/C1=C\c1ccc(Br)s1	active
CS(=O)(=O)c1ccc(NCCc2ccccn2)c([N+](=O)[O-])c1	inactive
Cc1c(Cc2ccccc2)c(=O)oc2c(CN(C)C)c(O)c(Cl)cc12	inconclusive
CCc1cc2c(=O)c(Oc3ccccc3F)c(C)oc2c(CN(C)C)c1O	inconclusive
CCOC(=O)c1nc2cc3n(c(C)c-2c1C)C(C)C(CC)=C3C (stereo not drawn)	active
CC(C)c1cc(NCC2CCCO2)n2c(nc3ccccc32)c1C#N (stereo not drawn)	inconclusive

SMILES	outcome
COc1ccccc1-c1c(C)oc2c(CN3CCN(C)CC3)c(O)ccc2c1=O	inconclusive
CC1CCN(C(=O)C(Cc2ccccc2)n2cccc2)CC1 (stereo not drawn)	inactive
CC1=CC=CN2C1=NC(=O)CC2(C)C(=O)N(CC(=O)NC1CCCC1)c1ccccc1C (stereo not drawn)	inconclusive
CC1=CC=CC2=NC(=O)CC(C)(C(=O)N(CC(=O)NC3CCCC3)c3ccccc3C)N12 (stereo not drawn)	inconclusive
S=c1nc[nH]c2c1cnn2-c1ccccc1	active
O=[N+]([O-])c1ccc(Cl)c(CN2CCN(c3ncccn3)CC2)c1	inactive
Cc1nn(C)cc1NC(=O)CCSc1nc(-c2ccco2)cc(C(F)(F)F)n1	inactive
COc1ccc(OC)c2c1CC(C)(C)NC2=O	inconclusive
Cc1cccc(-c2oc3ccccc3c2C#CCCO)c1	active
CCOC(=O)c1[nH]c(C)c(C(=O)OCC(=O)N2CCCCC2C)c1C (stereo not drawn)	inactive
CCCc1cc(=O)oc2c(CN(CC)CC)c(O)c(Cl)cc12	inconclusive
Oc1ccc(Br)cc1/C=N/n1c(C2CCCCC2)n[nH]c1=S	inactive
c1ccn2c(c1)nc1c2nc2ccccn21	inconclusive
CCC(Sc1nc2c(c(=O)n1CC)SC(C)C2)C(=O)OC (stereo not drawn)	inactive
CCS(=O)(=O)NCCc1csc(-c2ccc(OC)c(OC)c2)n1	inconclusive
Cc1c(CC(=O)NCC(=O)O)c(=O)oc2cc3c(cc12)CCC(C)(C)O3	inconclusive
CCOc1ccc(S(=O)(=O)Nc2cc(OC)c(OC)cc2C(=O)O)cc1	active
CCC(=O)Nc1cccc(NC(=S)NC(=O)c2cccs2)c1	active
Cn1c(C(=O)O)cc2c(=O)n3ccccc3nc21	inconclusive
Cc1ccccc1N(CC(=O)NCC1CCCO1)C(=O)C1(C)CC(=O)N=C2C=CC=CN21 (stereo not drawn)	inconclusive
COc1cc2c(cc1OC)C(C)=NC1(CCCCC1)C2	active
Cc1c(CCC(=O)O)c(=O)oc2cc(OCc3cccc(Cl)c3)ccc12	inconclusive

Reprinted at random: 3 records from the list
SMILES	outcome
Cc1cccc(-c2oc3ccccc3c2C#CCCO)c1	active
CCC(=O)Nc1cccc(NC(=S)NC(=O)c2cccs2)c1	active
Cc1ccccc1N(CC(=O)NCC1CCCO1)C(=O)C1(C)CC(=O)N=C2C=CC=CN21 (stereo not drawn)	inconclusive

Carrying on:

SMILES	outcome
COC(=O)Cc1c(C)c2ccc(OCC(=O)N3CCOCC3)cc2oc1=O	inconclusive
C=C(C)C(=O)Nc1cccc(C2=NOC3(C2)C[C@@H](C(N)=O)N(C(=O)c2ccc(OC)cc2)C3)c1 (stereo partly drawn)	inactive
COc1ccc2[nH]c3c(NCCCOC(C)C)ncnc3c2c1	inconclusive
Cc1c(CC(=O)N2CCN(C(=O)C3COc4ccccc4O3)CC2)c(=O)oc2cc(O)c(Cl)cc12 (stereo not drawn)	inconclusive
CCCCCC(=O)Nc1cccc(C2=NOC3(C2)C[C@H](C(N)=O)N(C(=O)CCCCC)C3)c1 (stereo partly drawn)	inactive
CCCc1cc(=O)oc2c(CN3CCCC3)c(O)c(Cl)cc12	inconclusive
COC(=O)c1oc2ccc(Cl)cc2c1N	inconclusive
C=C(C(=O)c1ccccc1)C(C)C(=C)C(=O)c1ccccc1	inactive
NC(=O)Cn1nnc(-c2ccc(C(F)(F)F)cc2)n1	inactive
Cc1cc(C)[n+](-c2ccc(F)cc2)c2[nH]c(=O)[nH]c(=O)c12	inconclusive
COc1ccnc(Oc2ccccc2)c1-c1ncn[nH]1	inconclusive
CN1CCCc2cc(C#N)c(=O)[nH]c21	inconclusive
CSc1nnc(-c2cc3c(s2)-c2ccccc2CC3)o1	inactive
Oc1cccc(C=NCc2ccccc2)c1O	inactive
CNc1nnc(-c2ccncc2)s1	inconclusive
O=C(N/N=C/c1c(Cl)[nH]c2ccccc12)c1ccc2c(c1)OCCO2	inactive
CC1=CC=CC2=NC(=O)CC(C)(C(=O)N(CC(=O)NC3CCCC3)c3ccc(F)cc3)N12 (stereo not drawn)	inconclusive
O=C(OCC(=O)N1CCCc2ccccc21)c1ccccc1NCCO	inconclusive
COc1cc2nc(N3CCN(C(=O)[C@@H]4CCCO4)CC3)nc(N)c2cc1OC	inconclusive
COc1cccc(Oc2c(C)oc3c(CN4CCCC4)c(O)ccc3c2=O)c1	inactive
Cc1ccccc1NS(=O)(=O)c1ccc(C(=O)NCC(c2ccco2)N2CCCCC2)cc1 (stereo not drawn)	inactive
Cn1c(=O)c2cc(S(=O)(=O)NCCC(=O)NCc3ccccc3Cl)ccc2n(C)c1=O	inactive

SMILES	outcome
COc1ccc2cc3cc(C(=O)NCc4cccs4)oc3nc2c1	inconclusive
O=c1c(-c2ccccc2)coc2c(CN3CCCC3)c(O)ccc12	active
Cc1nc(N2CCOCC2)c2c(C)c(C(=O)Nc3ccc(C(F)(F)F)cc3)sc2n1	active
COc1ccc2nc(-c3ccccc3)[nH]c2c1	inconclusive
Cc1ccsc1CN(C(=O)c1ccccc1)C1CCS(=O)(=O)C1 (stereo not drawn)	inactive
CC(=O)N1CCCc2cc(S(=O)(=O)Nc3ccccc3C)ccc21	inconclusive
Cc1oc2c(CN3CCCCC3C)c(O)ccc2c(=O)c1-c1ccccc1 (stereo not drawn)	inconclusive
CCN1CCN(Cc2c(O)ccc3c(C)cc(=O)oc23)CC1	inconclusive
Cc1c(CC(=O)N[C@H](C(=O)O)C(C)C)c(=O)oc2cc3c(cc12)CCC(C)(C)O3	inconclusive
Cc1cc(C)n2cc(CSC3=NCCS3)nc2n1	active
Cc1ccc(OCc2nnc(N)s2)cc1	inactive
O=C(COc1ccc(Br)cc1Cl)NC1CCCCC1	inactive
CC1CCN(CCCNC(=O)c2cc3c(s2)-c2ccccc2OC3)CC1	inconclusive
c1ccc2c(c1)ncn2CCCCOc1ccc2c(c1)CCC2	inactive
Cc1c(C)n(CC(O)CNCCO)c2ccccc12 (stereo not drawn)	inactive
c1ccn2cc(-c3ccc4c(c3)OCCO4)nc2c1	inconclusive
COc1ccc(OC)c(C2=NOC(C(=O)Nc3cc(C)on3)C2)c1 (stereo not drawn)	inactive
COc1ccc2nc(SCC(=O)N3CCNC3=O)[nH]c2c1	inconclusive
C=CCNc1oc(/C=C/c2ccccc2)nc1C#N	active
CCc1c(C)c2ccc(O)c(CN(C)C)c2oc1=O	inconclusive
CCOC(=O)C1CCN(C(=O)CN2C(=O)c3ccccc3S2(=O)=O)CC1	inactive
Cn1c(=O)c2c(nc(/C=C/c3cccc(Cl)c3)n2C)n(C)c1=O	inconclusive

SMILES	outcome
Cc1ccc(OCCN2C(=O)C(=O)c3cc(C)ccc32)cc1	active
Cc1ccc(-c2cc(C(=O)N3CCCC3)c3ccccc3n2)s1	inconclusive
COC(=O)c1nc(N)sc1-c1ccc(Cl)c(Cl)c1	active
Cc1ccsc1/C=N/Nc1ccc(C(=O)O)cc1	inactive
CC(C)(O)[C@@H]1Cc2c(ccc3ccc(=O)oc23)O1	inconclusive
c1ccc(-c2cn3cccnc3n2)cc1	inconclusive
O=C(N/N=C/c1ccccc1)c1ccc(CN2C(=O)c3cccc4cccc2c34)cc1	inactive
CC(=O)Nc1ccc2c(CN3C(=O)NC(C)(c4ccc(C)cc4)C3=O)cc(=O)oc2c1 (stereo not drawn)	inconclusive
COCCNc1oc(/C=C/c2ccccc2)nc1C#N	inconclusive
O=c1oc2cc(O)ccc2cc1S(=O)(=O)c1ccccc1	inconclusive
CC(C)(C)c1cc(C(F)(F)F)c(C#N)c(=O)[nH]1	inconclusive
CCCCN(CC)CCNC(=O)c1cc2c(-c3ccc(Cl)cc3)nn(C)c2s1	active
COc1cc(/C=N/NC(=O)c2ccncc2)ccc1OC(=O)c1cc(OC)c(OC)c(OC)c1	active
O=C(Nc1ccc(Cl)cc1)c1cc2c(cc1O)[nH]c1ccccc12	inconclusive
O=C(Nc1nccs1)C1CCCN1/C=C/C(=O)C(F)(F)F (stereo not drawn)	inactive
COc1ccc2oc(-c3ccccc3)c(C(=O)N3CCOCC3)c2c1	active
CN(C)C(=O)COc1ccc2ccc(=O)oc2c1	active
c1ccc(Nc2cccc(Nc3ccccc3)n2)cc1	active
CCN(CC)Cc1c(O)ccc2c(=O)c(-c3ccccc3OC)coc12	active
COc1ccc(CCn2c(=N)c(C(=O)NCC3CCCO3)cc3c(=O)n4cccc(C)c4nc32)cc1OC (stereo not drawn)	inconclusive

As entered above.
`CC1=CC=CC2=NC(=O)CC(C)(C(=O)N(CC(=O)NC3CCCC3)c3ccccc3C)N12` (stereo not drawn) – outcome: inconclusive
`COc1ccc2[nH]c3c(NCCCOC(C)C)ncnc3c2c1` – outcome: inconclusive
`Cc1c(CCC(=O)O)c(=O)oc2cc(OCc3cccc(Cl)c3)ccc12` – outcome: inconclusive
`Cc1nn(C)cc1NC(=O)CCSc1nc(-c2ccco2)cc(C(F)(F)F)n1` – outcome: inactive
`CC(C)(C)c1cc(C(F)(F)F)c(C#N)c(=O)[nH]1` – outcome: inconclusive
`CCCc1cc(=O)oc2c(CN3CCCC3)c(O)c(Cl)cc12` – outcome: inconclusive
